Results are given in words; binding and its absence hold for the method and conditions named. Some binding calls cover weakened binding; strength is not graded here.
Molecular target: human GPRC5D (human) (UniProt Q9NZD1)
Assay: cell ELISA, CHO cells stably expressing human GPRC5D

Sequences of proteins named here, by UniProt entry; tags and fusion partners are left off. A change or cut given only in a name is not applied to a line headed by its entry.
UniProt Q9NZD1: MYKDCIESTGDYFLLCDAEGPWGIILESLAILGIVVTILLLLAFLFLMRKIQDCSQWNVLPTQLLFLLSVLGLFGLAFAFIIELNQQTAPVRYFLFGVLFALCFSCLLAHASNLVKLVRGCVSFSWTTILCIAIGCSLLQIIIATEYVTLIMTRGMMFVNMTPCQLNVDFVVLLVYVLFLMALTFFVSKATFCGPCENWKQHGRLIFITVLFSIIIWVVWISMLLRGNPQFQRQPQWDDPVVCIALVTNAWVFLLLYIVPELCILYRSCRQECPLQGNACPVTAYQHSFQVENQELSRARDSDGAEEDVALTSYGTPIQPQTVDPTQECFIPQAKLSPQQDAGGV

B1: 07A04 IgG (antibody, V domains shown)
VH: QVTLKESGPGILQPSHTLSLTCSFSGFSLSTYGMGVNWIRQPSGKGLEWLASIWWNGNTYNNPSLKSRLTVSKDTSNNQAFLKVTSVDTADTATYYCVHTRGIIRGRGLFFDYWGQGVMVTVSS
VL: DVQMTQSPYNLAASPGESVSINCKASKSISKYLAWYQQKPGKANKLLIYDGSTLQSGIPSRFSGSGSGTDFTLTIRSLEPEDFGLYYCQQHNEYPLTFGSGTKLEIKR
With B1 the binding was “binds”.

Reference: patent publication US20220259318A1
